Experimental findings from PMC12081750 are described below.

Protein sequences, listed by entry. Tags and fused reporters are not part of them. Residues count along the entry.
UniProt P40227: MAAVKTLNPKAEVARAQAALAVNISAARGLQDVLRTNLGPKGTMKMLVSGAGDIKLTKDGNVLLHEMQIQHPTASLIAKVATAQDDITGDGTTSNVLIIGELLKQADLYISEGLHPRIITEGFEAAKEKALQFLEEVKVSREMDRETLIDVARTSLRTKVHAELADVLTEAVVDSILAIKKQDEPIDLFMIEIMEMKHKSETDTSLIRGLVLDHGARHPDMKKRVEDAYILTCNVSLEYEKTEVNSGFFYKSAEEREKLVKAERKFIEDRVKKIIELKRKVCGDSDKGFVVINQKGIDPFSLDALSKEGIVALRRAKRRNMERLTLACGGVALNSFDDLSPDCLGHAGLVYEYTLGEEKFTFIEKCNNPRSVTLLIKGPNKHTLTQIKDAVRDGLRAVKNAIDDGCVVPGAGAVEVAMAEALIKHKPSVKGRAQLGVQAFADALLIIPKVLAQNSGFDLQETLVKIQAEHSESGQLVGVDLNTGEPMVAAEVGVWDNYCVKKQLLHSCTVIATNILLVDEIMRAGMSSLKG
UniProt P13501, residues 24-91: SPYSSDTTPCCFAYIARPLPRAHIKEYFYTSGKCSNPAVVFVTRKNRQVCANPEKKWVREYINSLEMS
UniProt P19876, residues 35-107: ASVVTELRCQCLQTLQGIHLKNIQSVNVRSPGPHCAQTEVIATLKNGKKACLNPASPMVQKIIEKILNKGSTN
UniProt P09341, residues 35-107: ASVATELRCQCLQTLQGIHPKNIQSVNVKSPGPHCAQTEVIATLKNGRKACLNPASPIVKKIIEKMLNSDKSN
UniProt P78556, residues 27-96: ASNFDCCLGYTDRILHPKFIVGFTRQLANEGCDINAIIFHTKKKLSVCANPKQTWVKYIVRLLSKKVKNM

Results are given in words; binding and its absence hold for the method and conditions named. Binding seen in cells or lysates may run through a third protein. Some results given as binding are weak or reduced against the parent protein; the word gives no strength.

Test [1] addresses CCT6A, protein of the GST pulldown in vitro (UniProt P40227). Nature of the test: pull-down; GST pulldown in vitro: purified GST-tagged fusion protein from E. coli incubated with the target protein in binding buffer (Tris-HCl, NaCl, protease inhibitors) at 4 °C for 2-4 h, eluted with glutathione; western blotting and CBB staining; which partner carried GST and where the other came from is not stated. (Immunoblotting shows a protein as a band on a membrane.)

Test [2] deals with CCT6A, subunit of the T-complex protein Ring Complex (TRiC), endogenous (human (endogenous in AsPC-1)) (UniProt P40227). Nature of the test: co-IP; endogenous co-IP from PDAC-derived exosomes (AsPC-1-Exo in Fig. 6B), specific antibody or control IgG with A/G agarose beads overnight at 4 °C, western blotting.
Test [3] has the same target. As to the kind of experiment: co-IP; endogenous co-IP from AsPC-1 cell lysate (1% NP-40, 20 mmol/L Tris-HCl pH 7.4, 5 mmol/L sodium pyrophosphate), specific antibody or control IgG with A/G agarose beads overnight at 4 °C, western blotting.

Turning to “CCL5, protein of the GST pulldown in vitro (from UniProt P13501 24-91)”, the binding entry in test [1] is on record as “binds”. On the same count and under the same terms, the entry for “CXCL3, protein of the GST pulldown in vitro (from UniProt P19876 35-107)” is “binds”. For the substance “CXCL1, endogenous (from UniProt P09341 35-107)”, the binding entry in test [2] and in test [3] was “binds” each time.

As to “CXCL3, endogenous (from UniProt P19876 35-107)”, the binding entry in test [2] and in test [3] was “binds” each time. As to “CXCL1, protein of the GST pulldown in vitro (from UniProt P09341 35-107)”, in test [1], the binding entry is recorded as “binds”. On the same count and under the same terms, under “CCL20, protein of the GST pulldown in vitro (from UniProt P78556 27-96)” stands “binds”. As to “CCL5, endogenous (from UniProt P13501 24-91)”, the binding result in test [2] and in test [3] was “binds” throughout. Turning to “CCL20, endogenous (from UniProt P78556 27-96)”, the binding result in test [2] and in test [3] was “binds” in each case.
